The whole screen tested about 310,000 compounds, of which about 17,000 (5.5%) were called active. This list was built around the results that the source calls inconclusive (neither active nor inactive); the mix of calls is not that of the screen. Calls follow the shape of the dose curve; as a rule, active = well fitted inhibition curve with a large enough effect; inconclusive = small, poorly fitted or top-dose-only effect, or effect the other way; inactive = no such curve, though single readings can be large or run the other way. Where the call is inconclusive, the potency comes from a doubtful curve fit.
Biological target: Nuclear receptor ROR-gamma (Mus musculus) (UniProt P51450)
Assay: qHTS for inhibitors of ROR gamma transcriptional activity; also: nearly all actives have a fitted effect of over 60% in size
Settings: Drosophila S2 Gal4-RORgamma UAS-luciferase reporter, 20 h; series mostly up to 53.6 µM
Outline: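 ROR gamma transcriptional activity was tracked as Gal4-UAS luciferase output in stably transfected Drosophila Schneider cells, with compound added 1 hr before 700 uM copper sulfate induction and a 20 hr ambient-temperature incubation.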
Potency is read from the fitted curve at half-maximal effect.

Amino acid sequences for entries named in this document (tags omitted). A change or cut given only in a name is not applied to a line headed by its entry.
UniProt P51450: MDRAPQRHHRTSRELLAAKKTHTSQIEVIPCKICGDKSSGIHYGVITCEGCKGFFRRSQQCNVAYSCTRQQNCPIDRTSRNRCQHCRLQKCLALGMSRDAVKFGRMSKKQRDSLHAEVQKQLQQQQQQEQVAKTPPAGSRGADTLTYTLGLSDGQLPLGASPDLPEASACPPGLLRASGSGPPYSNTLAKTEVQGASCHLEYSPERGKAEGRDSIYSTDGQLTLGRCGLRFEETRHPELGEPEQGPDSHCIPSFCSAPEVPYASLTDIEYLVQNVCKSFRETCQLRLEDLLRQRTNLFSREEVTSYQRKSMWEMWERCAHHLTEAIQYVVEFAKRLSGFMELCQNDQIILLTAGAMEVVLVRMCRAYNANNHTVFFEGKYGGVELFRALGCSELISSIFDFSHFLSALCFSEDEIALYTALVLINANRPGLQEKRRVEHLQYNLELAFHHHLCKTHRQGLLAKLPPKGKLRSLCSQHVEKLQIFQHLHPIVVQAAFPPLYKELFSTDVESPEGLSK

Row | SMILES | Potency
1 | COc1cccc(C=NCC(C)N=Cc2cccc(OC)c2O)c1O (stereo not drawn) | inconclusive: 3.55 µM [inhibitor, single point]
2 | c1ccc(CNc2nc3ccccc3[nH]2)cc1 | inconclusive: 15.8 µM [inhibitor, single point]
3 | CC(=O)c1ccc(N2CCN(C(=O)c3cc4c(-c5ccccc5F)nn(C)c4s3)CC2)cc1 | inconclusive: 35.5 µM [inhibitor, single point]
4 | Cc1c(Cl)cccc1NC(=S)NCC(C)C | active: 6.31 µM
5 | Cc1cccc(NC(=O)c2ccc(NCCc3ccccc3)c([N+](=O)[O-])c2)c1 | inconclusive: 4.47 µM [activator, full curve, poor fit]
6 | Cc1ccc(C)c(NC(=S)N2CCN(S(C)(=O)=O)CC2)c1 | inactive
7 | CCOc1ccccc1NC(=O)C(OC(=O)c1ccccc1)c1ccccc1 (stereo not drawn) | inactive
8 | COc1ccc(/C=N/NC(=O)CCN2CCCCC2c2cccnc2)cc1Cn1cc([N+](=O)[O-])cn1 (stereo not drawn) | inconclusive: 35.5 µM [activator, single point]
9 | Cc1ccc2nc(N(CCCN(C)C)C(=O)c3ccc(S(=O)(=O)N4CCCCCC4)cc3)sc2c1 | active: 11.2 µM
10 | Cc1oc(-c2ccccc2)nc1C(=O)Nc1nccs1 | inconclusive: 0.631 µM [inhibitor, single point]
11 | CC1=C(C(=O)OCc2ccccc2)C(C2CC2)NC(=O)N1CCCCCC(=O)O (stereo not drawn) | inactive
12 | Clc1c(OCCCn2ccnc2)ccc2ccccc12 | inconclusive: 35.5 µM [inhibitor, single point]
13 | COc1ccc(C2Oc3ccccc3C3=C2C(c2cccs2)n2ncnc2N3)cc1 (stereo not drawn) | inconclusive: 22.4 µM [inhibitor, single point]
14 | COc1cc(NC(=O)CN2CCN(S(=O)(=O)c3ccc(C(C)C)cc3)CC2)cc(OC)c1 | inactive
15 | O=c1c(/C=C(\O)c2ccc(F)cc2)nc2ccccc2n1-c1ccccc1 | inactive
16 | COc1ccc(NC(=O)Cn2nnc(C(=O)NCc3cccs3)c2N)cc1 | inactive
17 | CCn1c(=O)c2c3c(sc2n2cnnc12)CCC3 | inactive
18 | C/C(=N\Nc1ccc([N+](=O)[O-])cc1)c1ccc(-n2nncc2C(C)(C)C)cc1 | inconclusive: 3.55 µM [activator, single point]
19 | Cc1nc(N)sc1-c1csc(Nc2cccc(O)c2)n1 | inactive
20 | Fc1cccc2sc(Nc3nc4c(F)cccc4s3)nc12 | active: 4.47 µM
21 | O=C(NC1=NCCS1)c1ccc(C(F)(F)F)cc1 | inconclusive: 10 µM [inhibitor, partial curve, poor fit]
22 | COc1cccc(OCc2cc(C(=O)NCc3cnc4ccccn34)no2)c1 | inactive
23 | O=C(CCN(NC(=O)c1ccccc1)C1=NS(=O)(=O)c2ccccc21)NC1CCCCC1 | inconclusive: 35.5 µM [activator, single point]
24 | CCCCCCCC1CC(CSC(=N)N)OC1=O (stereo not drawn) | inactive

Sorted by count of non-hydrogen atoms (high to low): part of the list above.
Row | SMILES | Potency
13 | COc1ccc(C2Oc3ccccc3C3=C2C(c2cccs2)n2ncnc2N3)cc1 (stereo not drawn) | inconclusive: 22.4 µM [inhibitor, single point]
11 | CC1=C(C(=O)OCc2ccccc2)C(C2CC2)NC(=O)N1CCCCCC(=O)O (stereo not drawn) | inactive
7 | CCOc1ccccc1NC(=O)C(OC(=O)c1ccccc1)c1ccccc1 (stereo not drawn) | inactive

Going on with the list.

Row | SMILES | Potency
25 | COc1cccc(-c2nc(NC(C)C)c3ccccc3n2)c1O | inconclusive: 35.5 µM [activator, single point]
26 | CC1=NN(C(N)=S)C(=O)C1N=Nc1c(Cl)cc([N+](=O)[O-])cc1Cl (stereo not drawn) | active: 0.355 µM
27 | COC(=O)[C@@H]1C(c2c(OC)cc(OC)cc2OC)=NO[C@H]1C(=O)OC | inactive
28 | C#CCCCCCCCCCCCC(O)CC(O)CO (stereo not drawn) | inconclusive: 11.2 µM [activator, partial curve]
29 | CCOc1cccc(C(=O)Nc2ccc3ccccc3c2)c1 | inconclusive: 15.8 µM [inhibitor, single point]
30 | Cc1ccccc1C1N(c2nccs2)C(=O)C2CCCN21 (stereo not drawn) | inconclusive: 20 µM [inhibitor, single point]
31 | O=C(Nc1nc2ccccc2n1CCN1CCOCC1)c1ccc(COc2ccccc2Br)o1 | active: 2 µM
32 | COCCN(C(=O)CCl)C(C(=O)NC1CCCCC1)c1ccccc1C (stereo not drawn) | inconclusive: 20 µM [inhibitor, single point]
33 | CCOC(=O)C(=CNc1cccnc1Oc1ccc(C)c2c1CCC2)C(=O)OCC | inactive
34 | CCOc1ccc(-c2n[nH]c(=S)o2)cc1 | inconclusive: 11.2 µM [inhibitor, partial curve]
35 | CCc1ccc(OCC(=O)O/N=C(\N)c2ccncc2)cc1 | inconclusive: 3.98 µM [activator, partial curve]
36 | Cc1ccc(C)c(C(=O)CSc2n[nH]c(C(C)C)n2)c1 | inactive
37 | CCSc1nnc(NC(=O)C(CC)Oc2ccccc2)s1 (stereo not drawn) | inconclusive: 14.1 µM [inhibitor, single point]
38 | COc1ccc(NC(=O)CN(C)C(=O)c2oc3ccccc3c2C)cc1 | inactive
39 | O=C(Nc1sc2c(c1C(=O)O)CCCC2)c1ccc(F)cc1 | inconclusive: 22.4 µM [activator, single point]
40 | COc1cccc(C2C(C#N)=C(N)Oc3cc(C)n(Cc4ccco4)c(=O)c32)c1 (stereo not drawn) | inactive
41 | Cc1ccc(S(=O)(=O)N2CCC(=O)N(C(COCc3ccc(C(F)(F)F)cc3)Cc3ccccc3)CC2)cc1 (stereo not drawn) | inactive
42 | Cc1ccc(Nc2nc3c(c(=O)[nH]c(=O)n3C)n2Cc2ccc(F)cc2)cc1 | inconclusive: 2.82 µM [activator, partial curve, poor fit]
43 | N#Cc1nc(-c2cccs2)oc1NCC1CCCO1 (stereo not drawn) | inconclusive: 4.47 µM [activator, partial curve]
44 | O=C(CCl)Nc1cc2[nH]c(=O)[nH]c2cc1Br | inactive
45 | COc1ccc(C)cc1NC(=O)C(=O)NNC(=O)COc1ccc(Cl)cc1 | inconclusive: 25.1 µM [inhibitor, single point]
46 | O=C(COc1cccc2cccnc12)Nc1ccccc1 | inconclusive: 10 µM [activator, partial curve, poor fit]
47 | Cc1ccccc1OC(C)C(=O)Nc1ccc(S(=O)(=O)Nc2nccs2)cc1 (stereo not drawn) | inconclusive: 0.0501 µM [inhibitor, partial curve, poor fit]
48 | CCC(=O)NC(=S)Nc1cccc(NC(=O)c2ccccc2C)c1 | inconclusive: 22.4 µM [inhibitor, single point]

— PubChem BioAssay AID2551 (National Center for Advancing Translational Sciences (NCATS), 2010)
